From PMC4356985 come the findings set out here.

By UniProt entry, the sequences of proteins in these tests, tags left out.
UniProt P22736: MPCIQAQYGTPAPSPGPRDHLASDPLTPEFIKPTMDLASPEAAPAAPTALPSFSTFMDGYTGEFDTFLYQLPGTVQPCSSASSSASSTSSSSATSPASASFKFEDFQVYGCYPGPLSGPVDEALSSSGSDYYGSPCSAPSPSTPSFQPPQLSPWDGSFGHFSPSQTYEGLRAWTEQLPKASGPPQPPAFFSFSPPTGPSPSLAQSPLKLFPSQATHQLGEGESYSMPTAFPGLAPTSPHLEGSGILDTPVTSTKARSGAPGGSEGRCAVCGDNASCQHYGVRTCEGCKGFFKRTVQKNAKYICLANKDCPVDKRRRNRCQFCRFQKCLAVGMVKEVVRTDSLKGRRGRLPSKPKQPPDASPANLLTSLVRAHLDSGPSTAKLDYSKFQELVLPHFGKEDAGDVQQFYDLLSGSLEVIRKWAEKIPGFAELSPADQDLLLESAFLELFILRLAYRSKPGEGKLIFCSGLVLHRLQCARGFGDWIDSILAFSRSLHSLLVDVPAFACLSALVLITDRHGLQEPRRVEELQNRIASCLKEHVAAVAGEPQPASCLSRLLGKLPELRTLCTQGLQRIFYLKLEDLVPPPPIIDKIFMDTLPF
UniProt P12813: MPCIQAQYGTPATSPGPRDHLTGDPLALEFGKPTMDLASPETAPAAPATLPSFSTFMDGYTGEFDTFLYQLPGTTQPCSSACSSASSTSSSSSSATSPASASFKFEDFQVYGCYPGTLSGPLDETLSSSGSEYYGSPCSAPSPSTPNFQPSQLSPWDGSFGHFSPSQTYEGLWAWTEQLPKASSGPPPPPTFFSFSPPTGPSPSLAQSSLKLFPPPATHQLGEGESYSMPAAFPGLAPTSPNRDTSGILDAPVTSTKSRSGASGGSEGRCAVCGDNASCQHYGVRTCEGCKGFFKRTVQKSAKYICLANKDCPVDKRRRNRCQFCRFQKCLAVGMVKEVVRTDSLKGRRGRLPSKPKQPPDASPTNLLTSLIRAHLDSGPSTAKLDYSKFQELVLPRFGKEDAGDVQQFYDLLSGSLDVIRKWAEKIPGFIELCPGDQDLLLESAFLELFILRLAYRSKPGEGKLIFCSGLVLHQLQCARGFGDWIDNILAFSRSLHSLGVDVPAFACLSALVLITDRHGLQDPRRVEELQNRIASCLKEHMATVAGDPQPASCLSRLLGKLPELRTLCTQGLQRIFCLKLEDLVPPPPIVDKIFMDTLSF
UniProt Q9UKL0: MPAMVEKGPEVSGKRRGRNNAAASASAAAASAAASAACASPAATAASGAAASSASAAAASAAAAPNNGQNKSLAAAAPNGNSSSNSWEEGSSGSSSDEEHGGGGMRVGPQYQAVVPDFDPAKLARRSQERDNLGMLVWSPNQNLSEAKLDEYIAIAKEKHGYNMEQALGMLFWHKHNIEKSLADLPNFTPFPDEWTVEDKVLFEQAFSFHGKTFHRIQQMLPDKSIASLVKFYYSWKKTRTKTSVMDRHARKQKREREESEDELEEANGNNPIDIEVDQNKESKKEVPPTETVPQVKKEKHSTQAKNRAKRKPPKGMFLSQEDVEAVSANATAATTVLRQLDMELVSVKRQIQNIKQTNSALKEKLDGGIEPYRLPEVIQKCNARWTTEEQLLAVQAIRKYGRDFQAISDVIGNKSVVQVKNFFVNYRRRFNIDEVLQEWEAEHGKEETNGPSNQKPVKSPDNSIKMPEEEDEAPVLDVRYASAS

Results are given in words; binding and its absence hold for the method and conditions named. Binding seen in cells or lysates may run through a third protein. Some results given as binding are weak or reduced against the parent protein; the word gives no strength.

In experiment [1] the target is Nr4a1 (endogenous in human CD8+ T cells) (human (endogenous in CD8+ T cells from blood)) (UniProt P22736). As to the kind of experiment: co-IP; human CD8+ T cells isolated from blood, stimulated with anti-CD3/anti-CD28 dynabeads for 1 or 2 hrs; IP with anti-Nr4a1 antibody, western blot with anti-CoREST antibody. A general note: A western blot detects proteins with antibodies after separation by electrophoresis.

Experiment [2] addresses Nr4a1 (transfected into 293T cells) (UniProt P12813). Briefly: co-IP; 293T cells transfected with the Runx3 distal promoter region and a control vector or Nr4a1; collected 24 and 48 hrs after transfection; IP with anti-Nr4a1 antibody, western blot with anti-CoREST antibody.

In the case of “CoREST (endogenous in human CD8+ T cells) (from UniProt Q9UKL0 1-485)”, the binding result in experiment [1] is on record as “binds”.

With “CoREST (endogenous in 293T cells) (from UniProt Q9UKL0 1-485)”, in experiment [2], the binding result is reported as “binds”.
